{"source": "PubChem BioAssay AID651640", "about": "(Broad Institute, 2012)", "note": "About 6,000 (1.7%) of roughly 350,000 compounds were called active. This list was built around the results that the source calls inconclusive (neither active nor inactive); the mix of calls is not that of the screen. No stated cut-off is given here; in the data, active means CPE inhibition above about 20% (passing the limit was not always enough); inconclusive means no clear call, values can overlap the other calls; tested in BHK-21 cells.", "data": [{"experiment": "protection of cells from dengue 2 killing – plate reader, single concentration, primary screen (AID 651640);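 further: 0% = median of neutral control wells and 100% = median of positive control wells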", "settings": "DENV2-infected cells, cytopathic effect rescue, at 9.99 µM, active compounds read high", "values": [{"smiles": "CO[C@@H]1CN(C)C(=O)c2ccc(NC(=O)Nc3ccccc3)cc2OC[C@@H](C)N(C(C)=O)C[C@H]1C", "CPE inhibition": "active: 25.9%"}, {"smiles": "Cc1cccc(S(=O)(=O)N2CC[C@@H]3[C@H]2c2cc(Br)ccc2N(C)[C@H]3CO)c1", "CPE inhibition": "inconclusive: 26.5%"}, {"smiles": "C[C@H]1CN([C@@H](C)CO)C(=O)Cc2cc(NC(=O)Nc3ccccc3)ccc2O[C@H]1CN(C)S(C)(=O)=O", "CPE inhibition": "inconclusive: 22.3%"}, {"smiles": "Nc1cc(N)nc(SCCc2ccccc2)n1", "CPE inhibition": "inactive: -6.1%"}, {"smiles": "Cc1ccc(S(=O)(=O)N(C)C[C@H]2OCCCC[C@@H](C)Oc3ccc(NS(=O)(=O)c4c(C)noc4C)cc3C(=O)N([C@@H](C)CO)C[C@@H]2C)cc1", "CPE inhibition": "active: 29.5%"}, {"smiles": "Fc1ccccc1-c1ccc(/C=N/Nc2nc3ccccc3[nH]2)o1", "CPE inhibition": "inactive: -1.97%"}, {"smiles": "O=C(C[C@H]1CC[C@H]2[C@@H](COC[C@@H](O)CN2CC2CC2)O1)NCc1ccc(Cl)cc1", "CPE inhibition": "inconclusive: 66.8%"}, {"smiles": "C[C@@H]1CN([C@H](C)CO)C(=O)Cc2cc(NC(=O)C3CC3)ccc2O[C@H]1CN(C)C(=O)Nc1ccc(F)cc1", "CPE inhibition": "inconclusive: 23.1%"}, {"smiles": "C[C@H](O)C#Cc1ccc([C@@H]2[C@@H](CO)N3CCCCN(C(=O)Nc4ccccc4)C[C@@H]23)cc1", "CPE inhibition": "inactive: 1.24%"}, {"smiles": "CCCNC(=O)OC1CC2CC1[C@H]1CCCCN1C2=O", "note": "(some centres undefined)", "CPE inhibition": "active: 29.3%"}, {"smiles": "COc1ccc(C(=O)OCC(=O)c2ccc(S(=O)(=O)N3CCCCC3)cc2)c(OC)c1", "CPE inhibition": "inconclusive: 27.5%"}, {"smiles": "COc1ccccc1-c1ccc([C@@H]2[C@@H](CO)N3CCCCN(Cc4ccncc4)C[C@H]23)cc1", "CPE inhibition": "active: 26.1%"}, {"smiles": "C[C@H]1CN([C@@H](C)CO)C(=O)Cc2cc(NC(=O)C3CCCCC3)ccc2O[C@H]1CN(C)C(=O)Nc1cccc2ccccc12", "CPE inhibition": "inconclusive: 36.3%"}, {"smiles": "CC(=O)c1c(N2CCOCC2)nc2ccc(Cl)cc2c1-c1ccccc1", "CPE inhibition": "inactive: -2.32%"}, {"smiles": "Cc1ccc(S(=O)(=O)N(C)C[C@H]2OCCCC[C@H](C)Oc3ccc(NC(=O)c4ccncc4)cc3C(=O)N([C@H](C)CO)C[C@@H]2C)cc1", "CPE inhibition": "inconclusive: 30%"}, {"smiles": "O=C(NNC(=O)C12CC3CC(CC(Br)(C3)C1)C2)c1ccccc1F", "CPE inhibition": "inconclusive: 31.1%"}, {"smiles": "CC(C)CC#Cc1cnc2c(c1)C(=O)N([C@H](C)CO)C[C@@H](C)[C@@H](CN(C)C(=O)c1cccc(F)c1)O2", "CPE inhibition": "inconclusive: 43.3%"}, {"smiles": "C[C@H]1CCCCO[C@H](CN(C)C)[C@@H](C)CN([C@@H](C)CO)C(=O)c2cc(NS(=O)(=O)c3ccc(F)cc3)ccc2O1", "CPE inhibition": "inactive: -5.18%"}, {"smiles": "CCN(CC)S(=O)(=O)c1cccc(C(=O)NCC2(N3CCOCC3)CCCCC2)c1", "CPE inhibition": "active: 95.5%"}]}]}
